Consider 24 molecules from the supplement of paper PMC7824004.

Some of the results follow. The data scatter; read single values as rough.

For this test, the system named is Candida albicans SN425. In words: biofilm OD600 B-score; higher = more biofilm (less inhibition). Conditions: 10 µM; assay detail: High-throughput adherence inhibition optical density biofilm assay with C. albicans SN425 in RPMI-1640/MOPS pH 7.0, 384-well plates. …. How it is done:
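High-throughput adherence inhibition optical density biofilm assay with C. albicans SN425 in RPMI-1640/MOPS pH 7.0, 384-well plates. Compound (10 µM) was present only during the 90 min adherence step, then washed out, and the biofilm grew 24 h without compound. Biofilm was read as OD600 after removing the media. Scores are the difference from the mean in standard deviations and the plate B-score.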
In the case of `Cc1cc(C)nc(NC(=O)Cc2ccc(Cl)cc2)c1`, the “biofilm OD600 B-score” value stood at 0.162.
Turning to `CCC(CC)C(=O)NCc1ccncc1`, the “biofilm OD600 B-score” value was -0.0225.
Regarding `C=CCNS(=O)(=O)c1ccc(OC)cc1`, the “biofilm OD600 B-score” value stood at 1.86.
Next, `O=C(Nc1nc(-c2ccc(F)cc2)cs1)C1CCCO1` (centres undefined): 1.07.
Turning to `CCCN1CCC(N2CCN(c3ccc(C(C)=O)cc3)CC2)CC1`, the “biofilm OD600 B-score” value was -1.51.
The value for `Cc1cccc(NC(=O)c2ccc3ccccc3n2)n1` was 1.8; that for `Cc1cc(C(=O)Nc2cccc(O)c2)co1` was -0.0144; that for `COc1ccc(S(=O)(=O)Nc2ccccc2C(=O)NC(C)C)cc1` was 0.697.
In the case of `CCOC(=O)N1CCN(Cc2c(F)cccc2F)CC1`, the “biofilm OD600 B-score” value came out at 0.00699.
Next, `COc1ccc(NC(=O)Nc2cccc3cccnc23)cc1`: 0.787; `CSc1nc(C)cc(OCCNC(=O)Nc2ccccc2)n1`: -1.08; `Cc1cc(NO)nc(-c2ccc(Br)cc2)n1`: -1.23.
The value for `NCCSC12CC3CC(CC(C3)C1)C2` was 0.555.
For `NC(=O)C1CCN(CC(=O)Nc2ccc(Br)cc2)CC1`, the “biofilm OD600 B-score” value is 1.14.
Next, `CCCN(CCO)CC1CC=CCC1` (centres undefined): -0.897; `Cc1ccc(OCCCN(C)C)cc1C`: 0.273; `O=C(Nc1ccc2snnc2c1)N1CCN(c2ccccc2)CC1`: -2.01.
For the molecule `COC(=O)N1CCN(c2cccc(Cl)c2)CC1`, the “biofilm OD600 B-score” value was -1.89.
On to `Cc1ccc(Cl)c2c1NC(=O)C2=O`, for which the “biofilm OD600 B-score” value is 1.65.
Turning to `O=C(NC1CCCCC1)N1CCCc2ccccc21`, the “biofilm OD600 B-score” value was determined as 0.381.
On to `CN(C)CCN(C)Cc1ccccc1Cl`, for which the “biofilm OD600 B-score” value was 0.0463.
Consider `CC(C)c1ccc(OCC(=O)NCc2ccccn2)cc1`, for which the “biofilm OD600 B-score” value stood at 1.3.
As for `COc1ccc(CCNC(=O)C(C)C)cc1OC`, the “biofilm OD600 B-score” value is -2.15.
`O=C(Nc1ccccc1)N1CCN(c2ccc([N+](=O)[O-])cc2)CC1`: the “biofilm OD600 B-score” value is -4.4.
